From PMC5868845
These are yes or no findings as the source states them, for the method shown. In cells and extracts the contact can be indirect. A yes stands for co-enrichment or nearness to the bait. Other partners may have been found.

Chains of the proteins cited; added tags and fusions are not shown.
UniProt Q5SNZ0: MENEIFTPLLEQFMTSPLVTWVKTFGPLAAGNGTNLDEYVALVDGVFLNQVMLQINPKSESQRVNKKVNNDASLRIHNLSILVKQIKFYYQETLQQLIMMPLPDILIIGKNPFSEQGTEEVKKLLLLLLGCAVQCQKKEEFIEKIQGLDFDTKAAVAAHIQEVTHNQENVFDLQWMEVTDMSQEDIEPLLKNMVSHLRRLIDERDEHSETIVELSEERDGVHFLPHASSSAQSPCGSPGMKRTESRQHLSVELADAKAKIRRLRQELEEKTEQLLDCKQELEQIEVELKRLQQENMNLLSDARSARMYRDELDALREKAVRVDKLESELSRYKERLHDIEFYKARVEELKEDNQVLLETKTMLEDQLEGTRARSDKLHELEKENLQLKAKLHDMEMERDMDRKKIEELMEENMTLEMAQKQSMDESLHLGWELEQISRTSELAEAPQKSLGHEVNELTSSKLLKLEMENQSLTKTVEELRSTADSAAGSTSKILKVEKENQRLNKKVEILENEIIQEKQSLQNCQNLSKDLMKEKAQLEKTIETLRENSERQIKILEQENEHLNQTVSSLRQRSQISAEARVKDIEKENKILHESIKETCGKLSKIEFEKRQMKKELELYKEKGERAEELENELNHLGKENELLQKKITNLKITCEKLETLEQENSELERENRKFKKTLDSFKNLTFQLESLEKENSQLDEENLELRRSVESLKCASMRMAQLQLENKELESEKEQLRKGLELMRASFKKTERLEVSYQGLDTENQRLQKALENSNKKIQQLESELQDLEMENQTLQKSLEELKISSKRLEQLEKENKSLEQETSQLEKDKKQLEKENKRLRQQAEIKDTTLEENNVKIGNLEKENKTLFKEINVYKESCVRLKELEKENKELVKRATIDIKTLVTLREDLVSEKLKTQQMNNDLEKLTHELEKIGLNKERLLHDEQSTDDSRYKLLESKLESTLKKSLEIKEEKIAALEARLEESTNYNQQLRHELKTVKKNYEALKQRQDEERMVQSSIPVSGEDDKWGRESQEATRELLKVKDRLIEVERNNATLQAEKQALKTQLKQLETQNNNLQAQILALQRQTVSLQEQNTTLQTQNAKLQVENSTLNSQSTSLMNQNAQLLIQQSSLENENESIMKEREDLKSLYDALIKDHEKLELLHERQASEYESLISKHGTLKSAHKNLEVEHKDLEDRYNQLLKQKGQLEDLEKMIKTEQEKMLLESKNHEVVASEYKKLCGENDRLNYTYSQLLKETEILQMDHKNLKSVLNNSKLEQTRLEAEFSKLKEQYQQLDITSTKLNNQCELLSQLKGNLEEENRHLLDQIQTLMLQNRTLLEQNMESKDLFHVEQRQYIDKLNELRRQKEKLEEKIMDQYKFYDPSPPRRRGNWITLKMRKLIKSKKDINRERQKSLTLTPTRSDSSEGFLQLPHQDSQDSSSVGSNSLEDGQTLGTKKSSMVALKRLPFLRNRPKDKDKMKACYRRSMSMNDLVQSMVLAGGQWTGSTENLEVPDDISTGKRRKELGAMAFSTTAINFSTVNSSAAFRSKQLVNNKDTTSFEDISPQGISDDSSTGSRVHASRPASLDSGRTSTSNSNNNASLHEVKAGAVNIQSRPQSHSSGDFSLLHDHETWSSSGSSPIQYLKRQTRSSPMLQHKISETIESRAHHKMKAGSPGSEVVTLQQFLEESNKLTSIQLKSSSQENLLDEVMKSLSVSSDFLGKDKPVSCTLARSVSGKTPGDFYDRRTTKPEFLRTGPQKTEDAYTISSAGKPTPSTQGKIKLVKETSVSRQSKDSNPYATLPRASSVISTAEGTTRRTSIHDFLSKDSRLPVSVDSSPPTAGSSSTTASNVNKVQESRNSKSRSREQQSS
UniProt P10852: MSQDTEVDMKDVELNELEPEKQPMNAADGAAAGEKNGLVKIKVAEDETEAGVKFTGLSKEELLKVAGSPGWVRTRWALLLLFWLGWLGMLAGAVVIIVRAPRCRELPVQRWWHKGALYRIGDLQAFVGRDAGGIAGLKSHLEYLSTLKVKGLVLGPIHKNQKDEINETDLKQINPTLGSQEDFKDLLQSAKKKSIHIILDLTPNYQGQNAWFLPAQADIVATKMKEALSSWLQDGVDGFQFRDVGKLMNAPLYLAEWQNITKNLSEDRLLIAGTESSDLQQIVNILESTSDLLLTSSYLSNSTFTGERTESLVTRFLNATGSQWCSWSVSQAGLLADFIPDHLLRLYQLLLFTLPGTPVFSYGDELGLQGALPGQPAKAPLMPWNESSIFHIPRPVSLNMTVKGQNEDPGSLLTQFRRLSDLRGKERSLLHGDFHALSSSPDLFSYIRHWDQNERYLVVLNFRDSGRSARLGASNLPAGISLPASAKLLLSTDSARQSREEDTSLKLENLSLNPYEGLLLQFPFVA

Molecular target: girders of actin filaments (Girdin), mouse brain (mouse (endogenous in brain)) (UniProt Q5SNZ0)
Assay: affinity purification with mass spectrometry; anti-Girdin antibody or normal IgG cross-linked (DSS) to protein G beads, incubated overnight at 4°C with precleared mouse whole brain lysate (20 mM Tris-HCl, 120 mM NaCl, 0.8% Triton X-100, 1 mM EDTA, pH 7.4); acidic elution; shotgun tandem mass spectrometry

binding: binds
Substance: 4F2 heavy chain (4F2hc), mouse brain (from UniProt P10852 1-526)
